PubChem BioAssay AID1259254, NCATS – 2017
Assay: 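Finding genes that stop cells copying their DNA twice in one cycle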 (primary screen). System: human HCT116 colorectal cancer cells. Knock-down reagent: single siRNA against human genes. Duration: 3 days. Detection: 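Imaged Hoechst DNA stain sorts each cell into a cycle phase by DNA amount; per plate, G2 fraction set to 0% for non-targeting and 100% for GMNN siRNA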. Direction: G2 robust z-score: higher = more G2 cells, more excess DNA replication. Rule for the call: 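Active siRNAs have a G2 robust z of 5 or more median absolute deviations over the median, which in these data means about 38% or higher of GMNN control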.
The whole screen tested about 59,000 reagents; this is an unselected part. About 1,550 of them (2.6%) were called active. 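G2 share is only a proxy for re-replication; each gene was hit by three separate siRNAs, and active genes were retested.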 A number with no mark means an inactive call. The numbers tell different reagents against one gene apart. Not all columns of the deposit are shown. Not stated in the record: the amount of reagent.

no.	Gene	reagent	G2 robust z-score
1	GFM1	1	0.187
2	GFM1	2	5.54 (active)
3	GFM1	3	-1.32
4	MC2R	1	1.1
5	MC2R	2	-1.6
6	MC2R	3	2.28
7	RBM48	1	-0.288
8	RBM48	2	-0.989
9	RBM48	3	-0.0811
10	ITPR3	1	0.307
11	ITPR3	2	-0.277
12	ITPR3	3	0.686
13	CAPN15	1	-0.776
14	CAPN15	2	-1.01
15	CAPN15	3	-0.763
16	SACK1B	1	1.15
17	SACK1B	2	-0.597
18	SACK1B	3	-0.616

Records listed above with an active call (1):
Gene	reagent	G2 robust z-score
GFM1	2	5.54 (active)

The listing continues.
no.	Gene	reagent	G2 robust z-score
19	ADGRD1	1	-0.951
20	ADGRD1	2	1.51
21	ADGRD1	3	1.17
22	DISP3	1	0.417
23	DISP3	2	0.135
24	DISP3	3	-0.909
25	HLX	1	17.6 (active)
26	HLX	2	-0.574
27	HLX	3	-0.643
28	NIBAN1	1	0.284
29	NIBAN1	2	0.754
30	NIBAN1	3	0.44
